Results are given in words; binding and its absence hold for the method and conditions named. Binding seen in cells or lysates may run through a third protein. Binding calls can cover weak binding; strength is not graded here.

Sequences of proteins named here, by UniProt entry; tags and fusion partners are left off. Residues count along the entry.
UniProt P16234, residues 24-524: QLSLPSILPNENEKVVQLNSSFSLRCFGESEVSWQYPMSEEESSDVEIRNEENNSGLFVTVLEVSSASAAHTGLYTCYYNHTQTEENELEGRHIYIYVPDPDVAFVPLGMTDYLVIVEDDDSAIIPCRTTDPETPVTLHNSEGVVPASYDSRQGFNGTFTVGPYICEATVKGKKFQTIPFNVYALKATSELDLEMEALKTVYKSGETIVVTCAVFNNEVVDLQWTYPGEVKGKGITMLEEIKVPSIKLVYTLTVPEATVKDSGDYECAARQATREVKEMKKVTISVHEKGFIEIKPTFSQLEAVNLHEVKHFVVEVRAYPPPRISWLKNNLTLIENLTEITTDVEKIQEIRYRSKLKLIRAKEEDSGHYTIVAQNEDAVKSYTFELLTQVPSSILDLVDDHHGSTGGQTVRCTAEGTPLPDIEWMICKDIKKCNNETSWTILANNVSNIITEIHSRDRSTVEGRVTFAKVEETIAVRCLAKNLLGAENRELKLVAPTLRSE

The target of the experiment is soluble PDGF-alpha receptor (UniProt P16234). The experiment in a line: proximity ligation competition assay in solution (aptamer proximity-probes, TaqMan PCR read-out). A general note: In qPCR the cycle at which signal appears reflects the starting amount.

Consider PDGF-AA (from UniProt P04085) (ligand), for which the binding entry is on record as “binds”.

The record behind these values is patent publication US7306904.
